Earlier results in patent publication US20130338178A1, “SIRTUIN MODULATORS AS INHIBITORS OF CYTOMEGALOVIRUS” (THE TRUSTEES OF PRINCETON UNIVERSITY, priority 2011, published 2013).
For at least one compound, name, drawing or mass did not settle the structure.

Tests used:
SIRT1 = target: T1, SIRT1 (Homo sapiens, UniProt Q96EB6); conditions: cited from earlier work
T1 sequence (Q96EB6 1-747): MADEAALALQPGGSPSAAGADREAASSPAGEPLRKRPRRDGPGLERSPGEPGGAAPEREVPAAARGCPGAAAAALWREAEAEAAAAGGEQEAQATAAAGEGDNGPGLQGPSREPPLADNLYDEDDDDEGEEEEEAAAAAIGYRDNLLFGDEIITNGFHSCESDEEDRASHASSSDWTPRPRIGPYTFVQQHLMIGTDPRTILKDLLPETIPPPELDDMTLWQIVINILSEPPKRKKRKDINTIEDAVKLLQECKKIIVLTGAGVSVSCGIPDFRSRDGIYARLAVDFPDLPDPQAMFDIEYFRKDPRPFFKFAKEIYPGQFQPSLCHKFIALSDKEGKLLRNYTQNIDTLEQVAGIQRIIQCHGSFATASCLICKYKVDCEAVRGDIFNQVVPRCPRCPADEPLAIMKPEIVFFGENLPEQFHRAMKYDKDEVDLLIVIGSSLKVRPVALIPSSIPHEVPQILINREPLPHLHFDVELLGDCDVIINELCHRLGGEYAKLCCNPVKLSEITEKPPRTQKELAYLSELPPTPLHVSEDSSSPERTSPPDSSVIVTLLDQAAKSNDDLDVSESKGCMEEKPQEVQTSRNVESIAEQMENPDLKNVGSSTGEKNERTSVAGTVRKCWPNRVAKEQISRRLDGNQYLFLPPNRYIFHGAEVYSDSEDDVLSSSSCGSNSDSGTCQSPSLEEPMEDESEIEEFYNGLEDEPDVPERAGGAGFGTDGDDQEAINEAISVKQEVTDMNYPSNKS

SIRT3 = target: T2, SIRT3 (Homo sapiens, UniProt Q9NTG7); conditions: cited from earlier work
T2 sequence (Q9NTG7 1-399): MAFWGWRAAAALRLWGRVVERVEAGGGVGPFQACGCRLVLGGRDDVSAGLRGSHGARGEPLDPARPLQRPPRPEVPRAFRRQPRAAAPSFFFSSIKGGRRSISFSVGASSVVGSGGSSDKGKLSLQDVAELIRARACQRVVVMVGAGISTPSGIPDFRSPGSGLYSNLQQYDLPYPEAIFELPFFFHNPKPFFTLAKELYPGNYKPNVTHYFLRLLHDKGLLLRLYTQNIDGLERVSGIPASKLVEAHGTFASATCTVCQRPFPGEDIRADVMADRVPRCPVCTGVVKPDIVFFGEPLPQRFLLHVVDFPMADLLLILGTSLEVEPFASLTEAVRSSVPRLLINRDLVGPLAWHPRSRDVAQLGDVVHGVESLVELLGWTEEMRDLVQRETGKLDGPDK

## CCN(CC)CCNC(=O)c1c(C)[nH]c(/C=C2\C(=O)Nc3ccc(F)cc32)c1C [Sunitinib]
SIRT1
  inhibition @ 50 μM SIRT1 (class): NA (Inhibition of <10% at 50 μM)
SIRT3
  inhibition [%] @ 50 μM SIRT3: 26.4%
